Measured values from paper PMC6017538.
These are yes or no findings as the source states them, for the method shown. In cells and extracts the contact can be indirect. These calls come from enrichment with a bait or labelling near it, and not all partners need be listed.

The chains behind the UniProt entries cited, without tags or fusion partners.
UniProt P9WP31, whole entry: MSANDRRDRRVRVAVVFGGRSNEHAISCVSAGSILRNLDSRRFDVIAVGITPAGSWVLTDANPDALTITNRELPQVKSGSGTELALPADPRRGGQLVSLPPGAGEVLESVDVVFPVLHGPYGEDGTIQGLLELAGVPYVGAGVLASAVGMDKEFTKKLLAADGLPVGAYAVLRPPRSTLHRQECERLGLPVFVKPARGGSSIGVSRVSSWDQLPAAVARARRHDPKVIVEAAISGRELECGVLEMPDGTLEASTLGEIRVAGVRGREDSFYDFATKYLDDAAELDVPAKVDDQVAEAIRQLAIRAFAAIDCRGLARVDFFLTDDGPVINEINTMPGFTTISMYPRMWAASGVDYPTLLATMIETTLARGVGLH

B1: diaminopimelate decarboxylase (MSMEG_4958, lysA) (enzyme, UniProt Q9X5M1 1-474)
chain: MNAHPAGPRHAEELHHADVPDKPQSPDEIMLLAPNVWPRNLVRGADGVVTIAGVPVTDLAAKFGTPLFVIDEDDFRTRCRDIAAAFGGGQYVHYAAKAFLCSEIARWVDEEGLSLDVATGGELAVALHAGFPASRITVHGNNKSVAELTAAVQAGVGHVVLDSEIEIERLDQIAGAAGVVQDVLVRVTVGVEAHTHEFISTAHEDQKFGLSLATGAAMNAIRRVFATDNLRLVGLHSHIGSQIFDVAGFEIAAHRVIGLLRDVVAEFGVEKTSQMSIVDLGGGLGISYLPHDDPPPMKELADKLLEIVRTESAAVGLPTPKLVVEPGRAIAGPGTITLYEVGTVKDVAVSQTAHRRYVSVDGGMSDNIRTSLYAAQYDARLVSRVSDAPPALARIVGKHCESGDIVVRDTWVSDDIAPGDLIGVAATGAYCYSMSSRYNLLCRPAVVAVADGQARLVLRRETVEDLLSLEVKGQ

The molecules below were run against Mycobacterium tuberculosis D-alanyl-D-alanine ligase A (Tb-DdlA), His6 fusion protein (Mycobacterium tuberculosis H37Rv) (UniProt P9WP31) (assay: affinity purification with mass spectrometry; only the target purified).
For “carbon-monoxide dehydrogenase large subunit (MSMEG_0746) (from UniProt A0QQG4) (enzyme)”, the binding was “binds”.
For “ornithine-oxo-acid transaminase (MSMEG_1413, rocD) (from UniProt A0QSA8) (enzyme)”, the binding was “binds”.
With B1 the binding was “binds”.
